In assay [1] the target is T1, PDK1 (Homo sapiens, UniProt O15530). Kind of assay: Test for the inhibition of PDK1 (flashplate, 33P-ATP). The settings on record: read-out: IC50 [PDK1] biochemical; His6-PDK1 (1-50) 3.4 nM, 4 μM ATP, 30° C., 60 min. Here is the method:
The experimental batches are carried out in a flashplate system with 384 wells/microtitration plate.
In each case, the PDK1 sample His6-PDK1 (1-50) (3.4 nM), the PDK1 substrate biotin-bA-bA-[…] (400 nM), 4 μM ATP (with 0.2μ Ci of ^33P-ATP/well) and the test substance in 50 μl of conventional experimental solution per well are incubated at 30° C. for 60 min. The test substances are employed in corresponding concentrations (if desired in a dilution series). The control is carried out without test substance. The reaction is stopped using standard methods and washed. The activity of the kinase is measured via the incorporated radioactivity in top count. In order to determine the non-specific kinase reaction (blank value), the experimental batches are carried out in the presence of 100 nM staurosporin.
The radioactivity (decompositions per minute) of the blank value (no use of test substance in the presence of staurosporin) is subtracted from all other radioactivity values. The controls (kinase activity without test substance) are set equal to 100 percent and all other radioactivity values (after subtracting the blank value) are expressed set in relation thereto (for example in % of the control).
IC50 values (50% inhibition) are determined with the aid of statistics programmes, such as, for example, RS1.

The chains behind the UniProt entries cited, without tags or fusion partners. Residues count along the entry.
UniProt O15530, whole entry: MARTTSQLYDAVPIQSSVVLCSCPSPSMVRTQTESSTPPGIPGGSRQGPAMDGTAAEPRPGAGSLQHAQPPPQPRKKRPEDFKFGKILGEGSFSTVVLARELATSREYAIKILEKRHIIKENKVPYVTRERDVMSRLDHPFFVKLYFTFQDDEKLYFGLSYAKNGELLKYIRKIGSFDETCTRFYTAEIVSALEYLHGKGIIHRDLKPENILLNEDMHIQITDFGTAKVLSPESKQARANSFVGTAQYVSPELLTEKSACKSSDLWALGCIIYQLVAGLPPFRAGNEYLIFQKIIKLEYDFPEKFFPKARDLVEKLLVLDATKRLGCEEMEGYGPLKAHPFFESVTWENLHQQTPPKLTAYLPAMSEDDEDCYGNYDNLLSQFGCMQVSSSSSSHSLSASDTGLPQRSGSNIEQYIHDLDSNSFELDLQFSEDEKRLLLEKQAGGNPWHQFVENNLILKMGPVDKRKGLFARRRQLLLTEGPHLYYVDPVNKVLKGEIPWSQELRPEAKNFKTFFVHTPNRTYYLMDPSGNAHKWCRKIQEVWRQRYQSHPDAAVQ
UniProt O15530, 51-556 limits assumed: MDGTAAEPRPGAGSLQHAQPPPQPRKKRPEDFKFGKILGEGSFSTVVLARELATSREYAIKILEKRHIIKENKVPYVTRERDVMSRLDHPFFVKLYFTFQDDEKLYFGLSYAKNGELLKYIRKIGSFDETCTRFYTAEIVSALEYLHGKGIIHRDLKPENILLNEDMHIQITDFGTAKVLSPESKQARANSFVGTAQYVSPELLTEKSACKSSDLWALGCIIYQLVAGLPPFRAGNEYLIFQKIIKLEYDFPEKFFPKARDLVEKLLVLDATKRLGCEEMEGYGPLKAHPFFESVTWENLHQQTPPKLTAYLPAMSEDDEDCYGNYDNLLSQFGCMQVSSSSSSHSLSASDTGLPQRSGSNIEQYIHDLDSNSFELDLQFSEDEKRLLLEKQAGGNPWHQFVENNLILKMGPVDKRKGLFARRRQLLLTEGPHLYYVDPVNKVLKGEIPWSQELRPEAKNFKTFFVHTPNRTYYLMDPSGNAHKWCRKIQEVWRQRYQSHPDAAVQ

The target in assay [2] is T1, PDK1. Briefly: Cellular testing of PDK1 kinase inhibitors in PC3 cells (Luminex, phospho-T308-PKB). Particulars: read-out: IC50 [PDK1] cellular, 30 min, serum-free. The method, then: Method for the Cellular Testing of PDK1 Kinase Inhibitors in PC3 Cells.
The cellular assay for the determination of the PDK1 kinase activity is carried out as a Luminex assay in the 96-well format. PC3 cells are sown at 20,000 cells per well in 100 μl of medium (45% of […]/45% of Ham's F12/10% of FCS) and incubated on the following day for 30 min with a serial dilution of the test substance (7 concentrations) under serum-free conditions. The cells are subsequently lysed using 90 μl of lysis buffer (20 mM tris/HCl pH 8.0, 150 mM NaCl, 1% of NP40, 10% of glycerol, 1% of phosphatase inhibitor I, 1% of phosphatase inhibitor II, 0.1% of protease inhibitor cocktail III, 0.01% of benzonase) per well, and the lysates are separated off from insoluble cell constituents by means of centrifugation through a 96-well filter plate (0.65 μm). The lysates are incubated overnight at 4° C. with shaking with Luminex beads to which an anti-total PKB antibody is coupled. The detection is carried out on the following day by addition of a phospho-T308-PKB antibody and a species-specific peroxidase-labelled secondary antibody. […] The values of the batches treated with test substance are calculated therefrom as percentage of control, and IC50 values are determined by means of RS 1.

The match of structure and compound is tentative.

For the compound `Cn1cc(-c2cnc3[nH]cc(-c4nc(C(C)(O)c5ccccc5F)no4)c3c2)cn1` (centres unmarked), the half-inhibitory concentration (IC50) lay within 0.5 to 1000 nM on PDK1 [1] and 1 to 10 µM at PDK1 [2].

One may read the IC50 as the concentration that gives 50% inhibition.
